pIC50: −log10 of the molar value. The match of structure and compound is tentative.
Legend:
[1] = molecular target: human ERRα-1 (Homo sapiens, UniProt P11474); experiment: Transient transfection luciferase assay, full length human ERRα with SF1-SV40-Luc reporter in HeLa cells; conditions: for Antagonism of constitutive activity of ERRα (in words): SF1 binding site reporter, FIG. 1; for pIC50: read-out: IC50, SF1-SV40-Luc, pSG5-ERRα, 24 h, mean ± SD
[2] = molecular target: GAL4-human ERRα LBD fusion (Homo sapiens, UniProt P11474); experiment: Transient transfection luciferase assay, GAL4-human ERRα LBD fusion with Gal4-TK-Luc reporter in HeLa cells; conditions: read-out: IC50, Gal4-TK-Luc, pM-ERRα LBD, 24 h, mean ± SD
[3] = molecular target: ERRβ (Homo sapiens, UniProt O95718); experiment: Transient transfection luciferase assay with pSG5-ERRb and SF1-SV40 reporter in HeLa cells; conditions: for pIC50: read-out: IC50, ERRβ, HeLa cells, 24 h, average of at least two experiments; for Antagonistic properties on ERRb (in words): transient transfection
[4] = molecular target: ERRγ (Homo sapiens, UniProt P62508); experiment: Transient transfection luciferase assay with pSG5-ERRg and SF1-SV40 reporter in HeLa cells; conditions: for pIC50: read-out: IC50, ERRγ, HeLa cells, 24 h, average of at least two experiments; for Antagonistic properties on ERRg (in words): transient transfection
[5] = molecular target: ERα (Homo sapiens, UniProt P03372); experiment: Transient transfection luciferase assay with pSG5-ERa and ERE-SV40 reporter in HeLa cells, with 100 pM estradiol; conditions: for pIC50: read-out: IC50, ERα, HeLa cells, in the presence of 100 pM of estradiol, 24 h; for Antagonistic properties on ERa (in words): transient transfection
[6] = molecular target: ERβ (Homo sapiens, UniProt Q92731); experiment: Transient transfection luciferase assay with pCI-ERb and ERE-SV40 reporter in HeLa cells, with 100 pM estradiol; conditions: for pIC50: read-out: IC50, ERβ, HeLa cells, in the presence of 100 pM of estradiol, 24 h; for Antagonistic properties on ERb (in words): transient transfection

By UniProt entry, the sequences of proteins in these tests, tags left out. Residues count along the entry.
UniProt P11474, whole entry: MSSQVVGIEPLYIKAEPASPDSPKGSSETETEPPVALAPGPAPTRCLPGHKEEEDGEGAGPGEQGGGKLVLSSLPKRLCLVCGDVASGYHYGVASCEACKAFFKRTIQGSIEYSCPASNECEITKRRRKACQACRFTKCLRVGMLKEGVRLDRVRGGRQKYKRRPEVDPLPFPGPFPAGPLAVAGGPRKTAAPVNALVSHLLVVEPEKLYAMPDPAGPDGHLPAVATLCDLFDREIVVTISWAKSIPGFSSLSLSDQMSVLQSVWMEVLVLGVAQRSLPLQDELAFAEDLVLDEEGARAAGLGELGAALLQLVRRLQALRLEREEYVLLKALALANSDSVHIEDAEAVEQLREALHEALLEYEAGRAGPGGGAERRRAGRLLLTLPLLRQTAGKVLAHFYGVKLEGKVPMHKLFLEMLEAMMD
UniProt P11474, 193-421 limits assumed: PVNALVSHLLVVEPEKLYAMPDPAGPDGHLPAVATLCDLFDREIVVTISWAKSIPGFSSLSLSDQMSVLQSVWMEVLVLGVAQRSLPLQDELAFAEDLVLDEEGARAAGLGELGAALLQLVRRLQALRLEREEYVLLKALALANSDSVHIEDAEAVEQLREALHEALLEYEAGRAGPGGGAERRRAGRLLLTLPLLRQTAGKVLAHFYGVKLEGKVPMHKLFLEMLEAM
UniProt O95718, whole entry: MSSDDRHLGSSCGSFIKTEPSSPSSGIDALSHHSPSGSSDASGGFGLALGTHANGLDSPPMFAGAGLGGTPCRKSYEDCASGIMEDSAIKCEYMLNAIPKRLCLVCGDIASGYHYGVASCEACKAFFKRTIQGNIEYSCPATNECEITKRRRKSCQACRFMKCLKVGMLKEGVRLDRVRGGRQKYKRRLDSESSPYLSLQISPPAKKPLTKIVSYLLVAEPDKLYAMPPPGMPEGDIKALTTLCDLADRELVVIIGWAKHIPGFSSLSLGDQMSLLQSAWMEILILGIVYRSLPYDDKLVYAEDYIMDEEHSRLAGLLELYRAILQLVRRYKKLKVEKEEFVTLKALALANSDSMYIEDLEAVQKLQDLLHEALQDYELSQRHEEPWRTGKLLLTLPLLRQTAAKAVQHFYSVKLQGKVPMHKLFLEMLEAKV
UniProt P62508, whole entry: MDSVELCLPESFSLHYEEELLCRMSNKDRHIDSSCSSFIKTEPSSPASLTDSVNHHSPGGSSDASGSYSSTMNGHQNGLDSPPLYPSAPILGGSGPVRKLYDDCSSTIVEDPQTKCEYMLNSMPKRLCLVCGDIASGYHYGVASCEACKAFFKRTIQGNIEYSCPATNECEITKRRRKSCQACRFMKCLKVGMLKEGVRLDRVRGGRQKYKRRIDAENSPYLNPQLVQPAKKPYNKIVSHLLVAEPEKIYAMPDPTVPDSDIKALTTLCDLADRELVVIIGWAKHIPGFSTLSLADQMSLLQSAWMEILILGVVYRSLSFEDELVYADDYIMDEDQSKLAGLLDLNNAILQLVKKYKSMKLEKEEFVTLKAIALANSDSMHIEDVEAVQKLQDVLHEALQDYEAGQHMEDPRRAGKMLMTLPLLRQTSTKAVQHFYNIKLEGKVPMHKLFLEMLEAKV
UniProt P03372, whole entry: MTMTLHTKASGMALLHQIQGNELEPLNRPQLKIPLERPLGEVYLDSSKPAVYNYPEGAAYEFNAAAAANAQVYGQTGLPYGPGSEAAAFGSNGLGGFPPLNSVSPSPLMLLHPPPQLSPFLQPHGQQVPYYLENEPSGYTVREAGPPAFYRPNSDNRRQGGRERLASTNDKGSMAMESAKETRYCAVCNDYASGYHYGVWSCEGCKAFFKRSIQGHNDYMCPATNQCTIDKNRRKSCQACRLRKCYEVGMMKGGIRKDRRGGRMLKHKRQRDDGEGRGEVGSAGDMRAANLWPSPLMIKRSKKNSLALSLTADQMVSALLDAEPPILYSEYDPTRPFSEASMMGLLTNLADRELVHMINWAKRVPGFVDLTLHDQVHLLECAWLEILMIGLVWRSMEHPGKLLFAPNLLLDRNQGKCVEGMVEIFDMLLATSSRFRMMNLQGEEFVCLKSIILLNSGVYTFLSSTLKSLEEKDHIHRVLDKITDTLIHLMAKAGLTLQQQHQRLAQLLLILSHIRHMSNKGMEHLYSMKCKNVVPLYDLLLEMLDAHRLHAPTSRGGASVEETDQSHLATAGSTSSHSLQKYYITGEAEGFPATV
UniProt Q92731, whole entry: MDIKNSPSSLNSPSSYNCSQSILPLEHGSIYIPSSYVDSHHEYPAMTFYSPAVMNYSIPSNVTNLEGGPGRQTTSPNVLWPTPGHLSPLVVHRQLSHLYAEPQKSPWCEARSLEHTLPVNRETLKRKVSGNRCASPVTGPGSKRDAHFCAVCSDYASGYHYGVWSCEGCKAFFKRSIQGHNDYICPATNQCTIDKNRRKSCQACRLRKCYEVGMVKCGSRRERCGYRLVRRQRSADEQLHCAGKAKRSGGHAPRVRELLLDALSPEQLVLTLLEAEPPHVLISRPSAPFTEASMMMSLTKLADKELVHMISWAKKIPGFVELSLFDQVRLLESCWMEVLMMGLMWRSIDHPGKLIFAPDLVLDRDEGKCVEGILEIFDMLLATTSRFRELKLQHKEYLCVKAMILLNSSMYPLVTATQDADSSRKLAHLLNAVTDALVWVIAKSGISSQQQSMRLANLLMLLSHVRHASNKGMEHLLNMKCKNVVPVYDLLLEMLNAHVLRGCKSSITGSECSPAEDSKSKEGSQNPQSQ

| Antagonism of constitutive activity of ERRα (in words) [1] | pIC50 [1] | IC50 [2] [pM] | pIC50 [3] | Antagonistic properties on ERRb (in words) [3] | pIC50 [4] | Antagonistic properties on ERRg (in words) [4] | pIC50 [5] | Antagonistic properties on ERa (in words) [5] | pIC50 [6] | Antagonistic properties on ERb (in words) [6] | Structure (SMILES) |
| --- | --- | --- | --- | --- | --- | --- | --- | --- | --- | --- | --- |
| antagonists of ERRα | 4.73 | 3.6e+06 | 5.10 | showed antagonistic properties | 5.00 | showed antagonistic properties | 4.90 | showed antagonistic properties | 4.70 | showed antagonistic properties | COc1ccc(C(=O)/C=C/c2ccc(OC)cc2OC)c(O)c1 |
| antagonists of ERRα | 5.11 | 2e+06 | 5.12 | showed antagonistic properties | 5.10 | showed antagonistic properties | 5.24 | showed antagonistic properties | 4.80 | showed antagonistic properties | COc1ccc(C(=O)/C=C/c2cccc(OC)c2OC)c(O)c1 |
| antagonists of ERRα | 5.06 | 2.4e+06 | 5.05 | showed antagonistic properties | 5.02 | showed antagonistic properties | 5.02 | showed antagonistic properties | 5.15 | showed antagonistic properties | COc1cc(O)c(C(=O)/C=C/c2ccc(OCc3ccccc3)c(OC)c2)c(OC)c1 |
| antagonists of ERRα | 5.19 | 1.9e+06 | 5.46 | showed antagonistic properties | 5.17 | showed antagonistic properties | 5.57 | showed antagonistic properties | 5.22 | showed antagonistic properties | COc1cc(O)c(C(=O)/C=C/c2ccccc2OC)c(OC)c1 |
